Test results taken from PubChem BioAssay AID1347076 (National Center for Advancing Translational Sciences (NCATS), 2019).
Hit rate of the full screen: of about 400,000 compounds, about 13,000 (3.2%) were called active. Inconclusive results, whose numbers are uncertain, are shown with a selection of clear calls. Calls come from the whole dose curve; as a rule, active = well fitted cell-killing curve with a large enough effect; inconclusive = small, poorly fitted or top-dose-only effect, or effect the other way; inactive = flat fitted curve, though single readings scatter. Where the call is inconclusive, the potency comes from a doubtful curve fit.

Assay: qHTS assay for MDR1-selective chemotherapeutics: Primary screen using the drug-selected MDR subline cells KB-V1; note: nearly all actives have a fitted effect of over 60% in size
Conditions: KB-V1 MDR cells viability, CellTiter-Glo, 72 h; series mostly up to 46.1 µM
Method in brief: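 Potencies derive from concentration-effect curves fitted to normalized luminescence (CellTiter-Glo) of KB-V1 cells treated for 72 h at 37 degrees C in phenol-red-free DMEM containing 10% FBS.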
Potency is the fitted concentration of half-maximal effect.

SMILES | Potency
O=C1CC(c2c(Cl)cccc2Cl)c2c(ccc3ccccc23)N1 (stereo unspecified) | inactive
Cn1c(N)c(C(=O)COC(=O)c2cc(-c3ccccc3)nc3ccccc23)c(=O)n(Cc2ccccc2)c1=O | inconclusive: 18.4 µM [rising, single point]
CCCCN(CCO)c1ncnc2sc(-c3ccccc3)cc12 | inactive
Cc1ccc(-c2nn(-c3cc(N4CCNCC4)ccc3[N+](=O)[O-])c(=O)c3ccccc23)cc1 | inconclusive: 16.4 µM [cytotoxic, single point]
Cc1cc(C)cc(NC(=O)COC(=O)CCn2c(C)csc2=O)c1 | inactive
NC(=S)N/N=C/c1coc2c(ccc3ccccc32)c1=O | active: 5.17 µM
Cc1ccc(-n2ncc(C(=O)NCCN3CCc4ccccc4C3)c2C2CCN(C(=O)OC(C)(C)C)CC2)cc1C | inactive
FC(F)(F)c1cnc(C(c2ccccn2)c2ncn[nH]2)c(Cl)c1 (stereo unspecified) | inconclusive: 29.1 µM [cytotoxic, single point]
O=C(C#Cc1ccccc1)Nc1cccc(F)c1 | inconclusive: 16.4 µM [cytotoxic, single point]
O=C(Nc1cccc(Cl)c1)C1CCCN(S(=O)(=O)c2ccc(F)cc2)C1 (stereo unspecified) | active: 6.51 µM
Cc1cc(C(=O)Nc2c[nH]c(=O)[nH]c2=O)ccc1[N+](=O)[O-] | inconclusive: 18.4 µM [cytotoxic, single point]
COc1cc(CNn2nnnc2N)ccc1OCc1c(Cl)cccc1Cl | active: 14.6 µM
Cc1cccc(C)c1NC(=O)CN1CCN(CCCC(c2ccc(F)cc2)c2ccc(F)cc2)CC1 | inconclusive: 7.31 µM [cytotoxic, partial curve, poor fit]
COc1ccc(NC(=O)c2ccc3c(=O)n4c(nc3c2)CCCCC4)cc1 | inconclusive: 7.31 µM [cytotoxic, partial curve]
O=C(NCc1ccc2c(c1)OCO2)c1c(O)nc2sccn2c1=O | active: 8.2 µM
COc1cccc(-c2nc3c(c(SCC(=O)N4CCOCC4)n2)Cc2c(CO)cnc(C)c2O3)c1 | inactive
CCN(c1ccccc1)S(=O)(=O)c1c(C)nc2scc(C)n2c1=O | inactive
COc1ccc(N2CCN(c3ncnc4c3cnn4-c3ccc(F)cc3)CC2)cc1 | inconclusive: 23.1 µM [rising, single point]
CCOC(=O)c1c(C)oc2nc(C)nc(NCCc3ccc(OCC)c(OCC)c3)c12 | inactive
CCOc1ccc(NC(=O)CCC(=O)N/N=C/c2ccc([N+](=O)[O-])s2)cc1 | inconclusive: 29.1 µM [cytotoxic, single point]
COc1cccc(CN(C)CC2CCCN(CCc3ccc(Cl)cc3)C2)c1OC (stereo unspecified) | inconclusive: 4.11 µM [cytotoxic, partial curve]
O=C(c1ccc(Sc2ccc(F)cc2)c([N+](=O)[O-])c1)N1CCOCC1 | inconclusive: 29.1 µM [cytotoxic, single point]
COc1ccc(Cl)cc1C=CC=Nc1ccccc1O | inconclusive: 29.1 µM [cytotoxic, single point]
COc1ccc(CCNC(=O)COc2coc(CN3c4ccccc4CC3C)cc2=O)cc1OC (stereo unspecified) | inconclusive: 16.4 µM [cytotoxic, partial curve, poor fit]

SMILES | Potency
C=CCC(CC(O)COCCC)C(=O)NNC(=S)Nc1ccccc1 (stereo unspecified) | inconclusive: 29.1 µM [rising, single point]
CCC(=O)Oc1ccc(C2NC(=O)c3ccccc3O2)cc1OC (stereo unspecified) | inconclusive: 20.6 µM [rising, partial curve, poor fit]
COc1cccc(NC(=O)[C@@H]2CCCN2S(=O)(=O)c2cccc3cccnc23)c1 | inconclusive: 0.146 µM [cytotoxic, full curve]
COC(=O)c1scc(C)c1NC(=O)C(Cl)c1ccccc1 (stereo unspecified) | inconclusive: 11.6 µM [rising, partial curve, poor fit]
C=CCn1c(SCC(=O)N2CCc3ccccc3C2)nc2sc(CC)cc2c1=O | inactive
O=C(c1nnsc1S(=O)c1ccc(Cl)cc1)N1CCOCC1 (stereo unspecified) | active: 13 µM
Cc1ccc(NC(=O)c2ccccc2OCc2c(C)noc2C)cc1S(=O)(=O)N(C)C | active: 2.31 µM
CCc1ccc(S(=O)(=O)Nc2ccncc2)cc1 | inconclusive: 1.3 µM [rising, full curve]
CCC(C)N(NC(C)=O)c1nc(Cl)nc(NC(C)C)n1 (stereo unspecified) | inactive
O=C(Cn1nc(-c2ccc(Cl)cc2)c2ccccc2c1=O)Nc1cccc(Br)c1 | inactive
COC(=O)C[C@H]1C=C[C@@H](NC(=O)Nc2c(C)noc2C)[C@@H](CO)O1 | inactive
CCCCC(=O)Nc1c(C(=O)N2CCN(c3ccccc3F)CC2)oc2ccccc12 | inconclusive: 20.6 µM [cytotoxic, single point]
O=C(C[C@@H]1C/C=C/CC[C@@H](Cc2ccc(F)cc2)C(=O)O[C@@H](c2ccccc2)CNC1=O)NCCO | inactive
Cc1ccc(C(=O)N/C(=C/c2ccc(-c3cccc([N+](=O)[O-])c3)o2)C(=O)NC(C)C)cc1 | active: 3.66 µM
O=[N+]([O-])c1ccccc1S(=O)c1ccccc1[N+](=O)[O-] | inconclusive: 25.9 µM [cytotoxic, single point]
O=C(COC(=O)c1n[nH]c(=O)c2ccccc12)NC1CCCCC1 | inactive
Cc1cccc(C2CN(C)CCc3c2cc(O)c(O)c3Cl)c1 (stereo unspecified) | inconclusive: 2.59 µM [cytotoxic, full curve]
COc1ccc(Cn2nnnc2CN(Cc2cc3cc(C)ccc3[nH]c2=O)C2CCCC2)cc1 | active: 16.4 µM
COc1cc2cnc(-c3ccccc3)cc2cc1OC | inconclusive: 29.1 µM [cytotoxic, single point]
CNC[C@H]1OCc2ccccc2-c2ccccc2C(=O)N([C@@H](C)CO)C[C@H]1C | inactive
Cn1cc(CN(C(=O)Nc2ccccc2)C2CCCCC2)c2ccccc21 | inconclusive: 18.4 µM [cytotoxic, single point]
COc1ccc(-c2nc3sc(CCNC(=O)c4ccco4)c(C)n3n2)cc1 | inconclusive: 32.6 µM [cytotoxic, single point]
COc1ccccc1Nc1ncnc2c1c(C)c(C)n2CCO | inconclusive: 1.84 µM [cytotoxic, full curve, poor fit]
Cc1cccc(NC(=O)CSc2nnc(NC(=O)C3CCC3)s2)c1 | inconclusive: 23.1 µM [cytotoxic, partial curve, poor fit]

Look-ups from above:
Cc1ccc(NC(=O)c2ccccc2OCc2c(C)noc2C)cc1S(=O)(=O)N(C)C | Potency: active: 2.31 µM
COC(=O)c1scc(C)c1NC(=O)C(Cl)c1ccccc1 (stereo unspecified) | Potency: inconclusive: 11.6 µM [rising, partial curve, poor fit]
CCC(C)N(NC(C)=O)c1nc(Cl)nc(NC(C)C)n1 (stereo unspecified) | Potency: inactive

Additional results

SMILES | Potency
Cc1ccccc1OCC(O)CNC1CCC(NCC(O)COc2ccccc2C)CC1 (stereo unspecified) | active: 18.4 µM
O=c1c2cc(Br)ccc2nc(-c2ccc(Cl)cc2)n1O | inconclusive: 5.17 µM [cytotoxic, partial curve]
CSc1ccccc1C(=O)NCCOc1cccc(C)c1 | inconclusive: 23.1 µM [cytotoxic, partial curve, poor fit]
CC(C)Oc1cccc(C(=O)Nc2ccc(Br)cc2F)c1 | inconclusive: 16.4 µM [cytotoxic, single point]
CCOC(=O)C1=CCN(S(=O)(=O)c2cccc(Cl)c2)C1c1ccc(Br)cc1 (stereo unspecified) | inconclusive: 16.4 µM [cytotoxic, partial curve, poor fit]
c1ccc(Cn2ncc3c(N4CCN(C(c5ccccc5)c5ccccc5)CC4)ncnc32)cc1 | inconclusive: 0.116 µM [cytotoxic, full curve]
Cc1ccc(Oc2nnc(-c3ccccc3)c3ccccc23)cc1 | inactive
CCOc1ccc2c(c1)C(c1ccc(C)cc1)=NNC(c1ccc(OC)cc1)=N2 | inconclusive: 20.6 µM [cytotoxic, partial curve]
CC(C)(C)N1CC(C(=O)Nc2ccc(C#N)cc2)CC1=O (stereo unspecified) | inconclusive: 16.4 µM [rising, single point]
COCCNC(=O)CN(C(=O)CCC(=O)Nc1ccccn1)c1ccc(OC)cc1 | inconclusive: 29.1 µM [rising, partial curve, poor fit]
O=C1CN(c2ccccc2)C(=S)N1C(=O)c1ccc(Br)cc1 | inactive
O=C(c1ccc2c3c(cccc13)CC2)C1CCCN(Cc2ccncc2)C1 (stereo unspecified) | inconclusive: 23.1 µM [cytotoxic, single point]
Cc1cccc(N2CCN(S(=O)(=O)c3c(C)nc4scc(C)n4c3=O)CC2)c1C | inconclusive: 2.91 µM [cytotoxic, full curve, poor fit]
Cc1nn(C)c(C)c1NC(=O)COc1ccc(Cl)cc1 | inactive
CC1CCN(C(=O)c2[nH]cnc2C(=O)N2CCN(C(=O)OC(C)(C)C)CC2)CC1 | inconclusive: 29.1 µM [rising, single point]
Cc1ccccc1OCCc1c(C)[nH]c(=S)[nH]c1=O | active: 1.84 µM
COCCCNC(=O)c1c(NC(=O)c2cccs2)sc2c1CCCC2 | inactive
CC(NC(=O)CC(c1ccccc1)c1cc(Cl)ccc1O)c1ccccc1 (stereo unspecified) | active: 20.6 µM
N#Cc1sc(NCc2cccc(Cl)c2)nc1Cl | inconclusive: 23.1 µM [cytotoxic, single point]
COc1cccc(OC)c1C(=O)N1CCNCC1 | inconclusive: 11.6 µM [rising, partial curve]
CC(Sc1nnc(-c2ccco2)o1)C(=O)Nc1ccc(OC(F)F)cc1 (stereo unspecified) | inconclusive: 32.6 µM [cytotoxic, single point]
CCC(=O)NC(c1ccc(OC)cc1)c1cc(Cl)c2cccnc2c1O (stereo unspecified) | inactive
CCc1ccc(/C=C/c2c[nH]c3ccccc23)[n+](CC)c1 | inconclusive: 29.1 µM [rising, single point]
